Out of some 6,900 compounds screened, fewer than 10 were called active. Calls come from the whole dose curve; as a rule, active = well fitted curve in the direction sought with a large enough effect; inconclusive = small, poorly fitted or top-dose-only effect, or another doubt; inactive = no such curve, though single readings can be large or run the other way. This is one part of the list.
target: Metallo-beta-lactamase type 2 (Klebsiella pneumoniae) (UniProt C7C422); test: qHTS to identify inhibitors of the New Delhi Metallo-beta-lactamase (NDM): primary screen against the NCATS Gemini Collection; conditions: NDM-1 enzyme, meropenem hydrolysis, absorbance 300 nm; at 38.4 µM (top of the series) unless noted; note: % of control where 0% means no effect
Method in brief: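 NDM-1 at 2 nM final in 50 mM HEPES pH 7.0, 1 uM ZnSO4, 0.01% Tween20, preincubated >30 min with compound. Meropenem 50 uM final added; absorbance at 300 nm after 30 min.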

Amino acid sequences for entries named in this document (tags omitted). A change or cut given only in a name is not applied to a line headed by its entry.
UniProt C7C422: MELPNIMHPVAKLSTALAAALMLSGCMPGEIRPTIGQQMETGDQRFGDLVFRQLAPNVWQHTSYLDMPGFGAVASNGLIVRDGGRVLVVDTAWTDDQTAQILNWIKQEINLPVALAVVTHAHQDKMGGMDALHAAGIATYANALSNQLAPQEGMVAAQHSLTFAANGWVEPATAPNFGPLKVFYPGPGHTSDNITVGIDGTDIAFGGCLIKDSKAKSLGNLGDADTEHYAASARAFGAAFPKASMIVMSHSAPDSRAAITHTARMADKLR

Compound | activity % (negative = inhibition)
CC(C(=O)NCCc1ccccn1)C1CCOCC1 (stereo unspecified) | inactive: 8.17%
CC(=O)NCC(=O)N1c2ccccc2CC1c1nc(C(C)C)no1 (stereo unspecified) | inactive: -22.3%
CC(C)(C)NC(=O)N1CCCC(c2nc(CCOCC3CC3)no2)C1 (stereo unspecified) | inactive: -0.186%
O=C(c1nc(-c2ccc(Cl)cc2Cl)c2cnccn12)N1CCOCC1 | inactive: -3.76%
COC(=O)COc1ccc(CC2C(=O)NCCc3ccccc3OCC(=O)N2C)cc1 (stereo unspecified) | inactive: -1.66%
Cc1ccc(NC2=N[C@H]3[C@@H](O)[C@H](O)C[C@H](C(=O)NCc4cccnc4)[C@H]3S2)cc1 | inactive: 6.31% [at 57.5 µM]
COc1cccc(CN2CCCC(O)(CNC3CCCCCCC3)C2=O)c1 (stereo unspecified) | inactive: 6.63%
CC(C)c1cc(C(=O)N2CC[C@H](CO)[C@H](O)C2)cs1 | inactive: 6.71%
Cc1cc(C(=O)NC2CC(C)(C)Cc3nc(N4CCOCC4)ncc32)nn1C (stereo unspecified) | inactive: 0.957%
CC(C)CCCC1CN(C(=O)CN2CCCC2=O)CCO1 (stereo unspecified) | inactive: 3.05%
Cc1noc([C@H]2CCN(S(C)(=O)=O)C[C@H]2NC(=O)C2CC2)n1 | inactive: -0.74%
O=C1CC2(CCN(CC3CCOCC3)C2)Nc2ccccc2N1 (stereo unspecified) | inactive: 0.0357%
Fc1cc(F)cc(Cc2nc3nccc(-c4cccnc4)n3n2)c1 | inactive: 5.04%
CCn1ccc(C(=O)N2CCCC(CO)CCNC(=O)CC2)n1 (stereo unspecified) | inactive: 23.3%
COc1cc(OC)cc(C(=O)N[C@@H]2COCC[C@@H]2Oc2cccc(F)c2)c1 | inactive: -1.29%
CC(C)(C)c1nc(C(=O)NCc2cccnc2)n2ccccc12 | inactive: 21.7%
CCC1(O)CCC12CCN(C(=O)c1ccco1)CC2 (stereo unspecified) | inactive: 1.5%
O=C(c1cnc(N2CCOCC2)nc1)N1CCn2nc(C(O)C3CC3)cc2C1 (stereo unspecified) | inactive: 1.78%
CN(Cc1cc(C2CC2)n[nH]1)C(=O)C(c1ccc(F)cc1)N(C)C (stereo unspecified) | inactive: 6.93%
CN1CC2(CCCN(C3CCN(C(=O)c4cnccn4)CC3)C2)OC1=O (stereo unspecified) | inactive: 0.1%
COc1ccc(OC)c(CNC(=O)CC2C(=O)NCCN2CC=C(C)C)c1 (stereo unspecified) | inactive: 3.9%
O=C(NCc1noc(-c2cccs2)n1)[C@H]1CNC[C@H](C(=O)N2CCCC2)C1 | inactive: 11.9%

Compound | activity % (negative = inhibition)
CSc1ccc(-c2nc3c([nH]2)CC(C)(C)CNC3=O)cc1 | inactive: 24.6%
Cc1nnc([C@@H]2CC(F)(F)CN2C(=O)c2conc2C)o1 | inactive: -3.43%
Cn1ccnc1CN1CCN(c2nccc(-c3cccnc3)n2)CC1 | inactive: -4.79%
O=C(O)C1CC2(CCN(C(=O)CCCn3ccnc3)CC2)CN1 (stereo unspecified) | inactive: 91.5%
O=C(CC1CCN(C(=O)c2ccc(F)cc2)C1)NCc1ccccc1 (stereo unspecified) | inactive: 4.51%
O=C1c2cnc(-c3cc4ccccc4o3)nc2OCCN1CC1CC1 | inactive: 15.2% [at 57.5 µM]
CCC(NS(=O)(=O)c1ccc(C(=O)NC2CC2)cc1)c1cnn(C)c1 (stereo unspecified) | inactive: 4.83%
Cc1cc(C(=O)N2CCCC3(C2)Nc2cccnc2NC3=NCc2ccccc2)nn1C (stereo unspecified) | inactive: -3.72%
Cn1cccc1-c1noc(C2CCN(C(=O)CCCc3ccccc3)C2)n1 (stereo unspecified) | inactive: 3.13%
OCCOCCn1cnc(-c2ccccc2)c1-c1ccccc1Cn1cccn1 | inactive: -2.56%
CCC(NS(=O)(=O)c1cc(-n2cccn2)ccc1OC)C1CC(O)C1 (stereo unspecified) | inactive: 2.68%
CCn1nc(C)c(-c2cc(C(=O)N3CCCCCCNC(=O)CC3)no2)c1C | inactive: -1.3%
CCc1nc(-c2c3n(c(=O)n(CC(=O)OC)c2=O)CCCC3)no1 | inactive: 0.26%
O=C(CCc1cnccn1)N1CCC(CCC(=O)N2CCC(Cc3ccccc3)CC2)CC1 | inactive: 50.3%
O=C(c1cccc(OC2CN(CC3CC=CCC3)C2)c1)N1CCCC1 (stereo unspecified) | inactive: -1.53%
CCn1c(-c2ccccc2)nn(CC(=O)NCc2ccsc2)c1=O | inactive: 10.5%
Cc1noc(C)c1S(=O)(=O)N1CC(c2noc(C3CCCN3C)n2)C1 (stereo unspecified) | inactive: -5.53%
CC(C)C(=O)N1CCc2[nH]nc(C(=O)NCCCc3ccccc3)c2C1 | inactive: 0.372%
CNCCN(C)C(=O)C1CCCN(C2CCN(C3Cc4ccccc4C3)CC2)C1 (stereo unspecified) | inactive: -2.41%
O=C(Nc1ccc([C@H]2OCC(=O)N(C3CCOCC3)[C@@H]2CO)cc1)c1cnccn1 | inactive: 12.1% [at 57.5 µM]
Cc1ccnn1CC(=O)N(Cc1ccncc1)Cc1cccc(OCCc2ccc(F)cc2)c1 | inactive: 29.4%
Cc1cccc(CNC(=O)C2CC(c3ccc(F)c(C)c3)CN(C(=O)c3ccccc3)C2)c1 (stereo unspecified) | inactive: 56.6%

Look-ups from above:
For activity % (negative = inhibition), O=C1c2cnc(-c3cc4ccccc4o3)nc2OCCN1CC1CC1 has inactive: 15.2% [at 57.5 µM]
For activity % (negative = inhibition), CCn1nc(C)c(-c2cc(C(=O)N3CCCCCCNC(=O)CC3)no2)c1C has inactive: -1.3%

Carrying on:

Compound | activity % (negative = inhibition)
O=C(Cn1ccn2nc3c(c2c1=O)CCCCC3)NCc1ccccc1Cl | inactive: -1.62%
O=C(COc1ccccc1)N1C[C@@H](CO)[C@H](c2ccccn2)C1 | inactive: 4.93%
O=C1NC(=NC2CCCCC2)C2(CCN(Cc3ccccc3)CC2)N1c1cc(F)cc(F)c1 | inactive: -0.147%
COCC1CN(S(=O)(=O)Cc2cccc(F)c2)CC12CCNCC2 (stereo unspecified) | inactive: -3.11%
CN1CCC(N2C[C@@H]3C[C@H]2C(=O)N(CC2CC2)c2ccccc2O3)CC1 | inactive: 7.73% [at 57.5 µM]
Clc1ccccc1CNC[C@H]1Cn2ccnc2CO1 | inactive: -0.618% [at 77.1 µM]
O=C(c1cccs1)N1CCCN(c2cc(-c3ccc(F)cc3)[nH]n2)CC1 | inactive: 2.22%
CN1Cc2ccc(NCc3ccccc3)nc2C(C)(C(=O)Nc2ccccc2)C1 (stereo unspecified) | inactive: 1.37% [at 57.5 µM]
CN(C)CCNC(=O)c1ccnc(-c2nnc3ccc(N(C)c4ccccc4)nn23)c1 | inactive: 14.8% [at 57.5 µM]
O=C(N[C@@H]1CCOC[C@H]1OCc1ccccn1)c1cccc(-n2cnnc2)c1 | inactive: -0.914%
COC(=O)CNC(=O)c1cc(-c2ccc(Cl)cc2Cl)c2cnn(C)c2n1 | inactive: 8.3%
O=C1CO[C@H]2CN(Cc3ncc[nH]3)C[C@H]2N1Cc1ccc(F)cc1 | inactive: 6.17% [at 57.5 µM]
O=C(CC1CCN(S(=O)(=O)c2ccc(F)cc2F)C1)NCc1ccccc1 (stereo unspecified) | inactive: 1.72%
c1ccc(CNc2nc(-c3ccccc3)no2)cc1 | inactive: -3.61%
CNC(=O)c1noc([C@@H]2CC(F)(F)CN2C(=O)CCOC)n1 | inactive: -0.329%
O=C(C1CCCN1C(=O)C1CCCC1)N1CCC(N2Cc3ccccc3C2=O)CC1 (stereo unspecified) | inactive: 52.2%
COCC1CCN(c2ccc(-c3nc(-c4ccccc4C)no3)cn2)C1 (stereo unspecified) | inactive: 35.7%
COc1ccc(-c2ccccc2C(=O)NCC#N)nn1 | inactive: -0.673% [at 57.5 µM]
Cn1cccc1CN1CCC2(CC1)CNc1ccccc1[S+](=O)([O-])N2 | inactive: 7.23%
CCn1c(CO)nnc1C1CC(NC(=O)c2[nH]c3ccc(OC)cc3c2C)C1 (stereo unspecified) | inactive: 13.2%
O=C1CCCN1CCCN1C(=O)[C@@H]2C[C@@H](O)CN2C2(CN(C3CCC(F)(F)CC3)C2)C1=O | inactive: -3.88%
Cc1ccc(NC(=O)c2cc3c(s2)CN(C2CC2)C3)cc1 | inactive: 18.4%

Compound | activity % (negative = inhibition)
O=C1COCC2(CN(c3ccc(C(F)(F)F)cn3)C2)CN1c1ccccc1F | inactive: 23.2% [at 57.5 µM]
O=C1c2cnc(-c3ccsc3)nc2OCCN1CC1CC1 | inactive: 47.5% [at 57.5 µM]
COc1cccc(N2C(=O)NC(=NC3CCCCC3)C23CCN(CC2CC2)C3)c1 (stereo unspecified) | inactive: 10.5%
Cc1ccc(-c2nc(NCc3ccncc3)ncc2C(=O)O)cc1 | inactive: 9.55%
N#Cc1ccc(OCC2CN(Cc3cccc(C(F)(F)F)c3)C(=O)c3c(ccnc3-c3ccc(OCC(=O)O)cc3)O2)cc1 (stereo unspecified) | inactive: 18.7%
Cc1nn(C)cc1C(=O)NCCn1c(C)cnc1C1CC1 | inactive: -10.1%
Cc1ccc2cc(CN3CCN(CC(N)=O)CC3)c(-c3cccs3)nc2c1 | inactive: 0.581%
CCN(CC)C(=O)[C@@H](C)C1CC[C@@]2(C)CC[C@H](NC(=O)c3ccncc3)[C@@H](C)[C@@H]2[C@H]1O (stereo partly specified) | inactive: 13.5% [at 57.5 µM]
COc1ccc(C(=O)N2CCC[C@H]2c2nc(-c3ccccc3)no2)cc1 | inactive: 5.95%
Cn1nccc1C(=O)N1CCCCCNC(=O)[C@@H]2CCC[C@@H]21 | inactive: -0.422%
O=C(NCC1CCOCC1)c1ccoc1 | inactive: 2.58%
Cc1nc([C@@H]2CN(Cc3ccc(C(F)(F)F)cc3)C[C@H]2C(N)=O)n[nH]1 | inactive: 7.17%
COc1ccc(-c2cc3c(cn2)CN(CCc2ccccc2)CCN3)cc1OC | inactive: 27.5% [at 57.5 µM]
CS(=O)(=O)N1CCOc2ccc(CCC(=O)N3CCC(C(N)=O)CC3)cc2C1 | inactive: -2.74%
O=C(Nc1ccc(Cl)cc1Cl)c1cnn2ncccc12 | inactive: 38.6% [at 57.5 µM]
COCC(=O)N[C@H]1CC[C@]2(C)CC[C@@H](C(C)C(=O)NC3CC3)[C@H](O)[C@H]2[C@@H]1C (stereo partly specified) | inactive: 1.21% [at 57.5 µM]
CCC1Oc2ccc(NC(=O)Cc3cccs3)cc2CN(C2CCCc3ccccc32)C1=O (stereo unspecified) | inactive: -5.31%
COc1ccc(C(=O)NC[C@H]2O[C@H](Cc3cc(CN4CCOCC4)on3)CC[C@@H]2O)cc1 | inactive: 7.81%
CCOc1ccccc1-c1noc(-c2nc(C)no2)n1 | inactive: -1.26%
Clc1ccc(-c2cnc([C@@H]3COCCN3Cc3ccccc3)[nH]2)s1 | inactive: 4.54% [at 57.5 µM]

5 entries picked at random from those above:
Compound | activity % (negative = inhibition)
CCOc1ccccc1-c1noc(-c2nc(C)no2)n1 | inactive: -1.26%
N#Cc1ccc(OCC2CN(Cc3cccc(C(F)(F)F)c3)C(=O)c3c(ccnc3-c3ccc(OCC(=O)O)cc3)O2)cc1 (stereo unspecified) | inactive: 18.7%
COc1ccc(C(=O)N2CCC[C@H]2c2nc(-c3ccccc3)no2)cc1 | inactive: 5.95%
Cc1nc([C@@H]2CN(Cc3ccc(C(F)(F)F)cc3)C[C@H]2C(N)=O)n[nH]1 | inactive: 7.17%
Cc1ccc(-c2nc(NCc3ccncc3)ncc2C(=O)O)cc1 | inactive: 9.55%

— PubChem BioAssay AID1794845 (National Center for Advancing Translational Sciences (NCATS), 2023)
